To fix the notation:
T1: GST-tagged bacterially expressed TIMAP protein (human) (UniProt Q96T49)
T1 sequence: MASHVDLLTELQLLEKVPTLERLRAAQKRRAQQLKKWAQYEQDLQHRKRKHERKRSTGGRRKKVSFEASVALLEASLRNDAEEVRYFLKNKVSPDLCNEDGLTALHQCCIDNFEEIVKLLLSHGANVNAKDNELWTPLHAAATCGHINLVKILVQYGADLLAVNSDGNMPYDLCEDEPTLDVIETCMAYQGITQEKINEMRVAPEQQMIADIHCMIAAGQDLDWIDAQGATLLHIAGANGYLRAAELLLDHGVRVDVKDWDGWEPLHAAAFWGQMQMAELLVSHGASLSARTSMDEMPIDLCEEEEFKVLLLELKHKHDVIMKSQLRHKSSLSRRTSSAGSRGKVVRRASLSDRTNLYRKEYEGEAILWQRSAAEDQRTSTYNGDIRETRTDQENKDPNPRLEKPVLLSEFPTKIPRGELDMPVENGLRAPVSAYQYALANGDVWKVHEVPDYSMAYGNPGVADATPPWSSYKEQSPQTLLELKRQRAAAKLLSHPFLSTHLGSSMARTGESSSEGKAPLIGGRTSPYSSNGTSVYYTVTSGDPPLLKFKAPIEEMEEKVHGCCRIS

B1: Serine/arginine-rich splicing factor 3 (protein, UniProt P84103 1-164)
chain: MHRDSCPLDCKVYVGNLGNNGNKTELERAFGYYGPLRSVWVARNPPGFAFVEFEDPRDAADAVRELDGRTLCGCRVRVELSNGEKRSRNRGPPPSWGRRPRDDYRRRSPPPRRRSPRRRSFSRSRSRSLSRDRRRERSLSRERNHKPSRSFSRSRSRSRSNERK
B2: Heterogeneous nuclear ribonucleoprotein A0 (protein, UniProt Q13151 1-305)
chain: MENSQLCKLFIGGLNVQTSESGLRGHFEAFGTLTDCVVVVNPQTKRSRCFGFVTYSNVEEADAAMAASPHAVDGNTVELKRAVSREDSARPGAHAKVKKLFVGGLKGDVAEGDLIEHFSQFGTVEKAEIIADKQSGKKRGFGFVYFQNHDAADKAAVVKFHPIQGHRVEVKKAVPKEDIYSGGGGGGSRSSRGGRGGRGRGGGRDQNGLSKGGGGGYNSYGGYGGGGGGGYNAYGGGGGGSSYGGSDYGNGFGGFGSYSQHQSSYGPMKSGGGGGGGGSSWGGRSNSGPYRGGYGGGGGYGGSSF
B3: ATP synthase subunit O, mitochondrial (protein, UniProt P48047 24-213)
chain: FAKLVRPPVQVYGIEGRYATALYSAASKQNKLEQVEKELLRVAQILKEPKVAASVLNPYVKRSIKVKSLNDITAKERFSPLTTNLINLLAENGRLSNTQGVVSAFSTMMSVHRGEVPCTVTSASPLEEATLSELKTVLKSFLSQGQVLKLEAKTDPSILGGMIVRIGEKYVDMSVKTKIQKLGRAMREIV
B4: Trans-2,3-enoyl-CoA reductase-like (protein, UniProt Q5HYJ1 1-363)
chain: MFKRHKSLASERKRALLSQRATRFILKDDMRNFHFLSKLVLSAGPLRPTPAVKHSKTTHFEIEIFDAQTRKQICILDKVTQSSTIHDVKQKFHKACPKWYPSRVGLQLECGGPFLKDYITIQSIAASSIVTLYATDLGQQVSWTTVFLAEYTGPLLIYLLFYLRIPCIYDGKESARRLRHPVVHLACFCHCIHYIRYLLETLFVHKVSAGHTPLKNLIMSCAFYWGFTSWIAYYINHPLYTPPSFGNRQITVSAINFLICEAGNHFINVMLSHPNHTGNNACFPSPNYNPFTWMFFLVSCPNYTYEIGSWISFTVMTQTLPVGIFTLLMSIQMSLWAQKKHKIYLRKFNSYIHRKSAMIPFIL
B5: 5-3 exoribonuclease 2 (protein, UniProt Q9H0D6 1-950)
chain: MGVPAFFRWLSRKYPSIIVNCVEEKPKECNGVKIPVDASKPNPNDVEFDNLYLDMNGIIHPCTHPEDKPAPKNEDEMMVAIFEYIDRLFSIVRPRRLLYMAIDGVAPRAKMNQQRSRRFRASKEGMEAAVEKQRVREEILAKGGFLPPEEIKERFDSNCITPGTEFMDNLAKCLRYYIADRLNNDPGWKNLTVILSDASAPGEGEHKIMDYIRRQRAQPNHDPNTHHCLCGADADLIMLGLATHEPNFTIIREEFKPNKPKPCGLCNQFGHEVKDCEGLPREKKGKHDELADSLPCAEGEFIFLRLNVLREYLERELTMASLPFTFDVERSIDDWVFMCFFVGNDFLPHLPSLEIRENAIDRLVNIYKNVVHKTGGYLTESGYVNLQRVQMIMLAVGEVEDSIFKKRKDDEDSFRRRQKEKRKRMKRDQPAFTPSGILTPHALGSRNSPGSQVASNPRQAAYEMRMQNNSSPSISPNTSFTSDGSPSPLGGIKRKAEDSDSEPEPEDNVRLWEAGWKQRYYKNKFDVDAADEKFRRKVVQSYVEGLCWVLRYYYQGCASWKWYYPFHYAPFASDFEGIADMPSDFEKGTKPFKPLEQLMGVFPAASGNFLPPSWRKLMSDPDSSIIDFYPEDFAIDLNGKKYAWQGVALLPFVDERRLRAALEEVYPDLTPEETRRNSLGGDVLFVGKHHPLHDFILELYQTGSTEPVEVPPELCHGIQGKFSLDEEAILPDQIVCSPVPMLRDLTQNTVVSINFKDPQFAEDYIFKAVMLPGARKPAAVLKPSDWEKSSNGRQWKPQLGFNRDRRPVHLDQAAFRTLGHVMPRGSGTGIYSNAAPPPVTYQGNLYRPLLRGQAQIPKLMSNMRPQDSWRGPPPLFQQQRFDRGVGAEPLLPWNRMLQTQNAAFQPNQYQMLAGPGGYPPRRDDRGGRQGYPREGRKYPLPPPSGRYNWN

No constants are given. Whether binding was seen depends on the method and setting. In cells and extracts the contact can be indirect. Here binding means that the protein was enriched with, or labelled near, the bait; the list need not be complete. Tags and fused reporters may be left off the sequences shown.

The text below walks through data of article PMC10744335.

This experiment has as its target T1, GST-tagged bacterially expressed TIMAP protein (human). Description: affinity purification with mass spectrometry; GST–TIMAP pull-down from the nuclear fraction of undifferentiated SH-SY5Y cells; bound proteins separated on SDS-PAGE, MS/MS analysis; only the target purified.
Take B1: the binding result was “binds”.
The entry for B2 is “binds”.
For B3, the binding entry is “binds”.
In the case of B4 it was “binds”; in that of B5, “binds”.
